From patent publication US10081665B2, “Peptides and combination of peptides for use in immunotherapy against various tumors” (immatics biotechnologies GmbH, priority 2015, dated 2018)
For some assays here: For expression read-outs the peptide stands for its source gene, whose mRNA was measured; the gene is not named for every peptide.

system: source genes of the peptides (mRNA); test: Expression profiling of source genes by Affymetrix microarrays (target coverage); set-up: species or system human; conditions: share of BPH/PCA samples with >1.5-fold over-expression vs highest-expressing relevant normal tissue; 20 prostate cancer samples

Row | Substance | Target coverage for source gene, BPH/PCA (%)
1 | 242: peptide found in CENPE (gene looked up) (KLQEEIPVL; listed as Homo sapiens) [compound 242] | I (<19% over-expression = I)
2 | 36: peptide found in KIF11 (gene looked up) (TVLQELINV; listed as Homo sapiens) [compound 36] | I (<19% over-expression = I)
3 | 37: peptide found in KIF11 (gene looked up) (QIVELIEKI; listed as Homo sapiens) [compound 37] | I (<19% over-expression = I)
4 | 252: peptide found in KIF4A (gene looked up) (SLMEKNQSL; listed as Homo sapiens) [compound 252] | I (<19% over-expression = I)
5 | 48: peptide found in CHEK1 (gene looked up) (KISDFGLATV; listed as Homo sapiens) [compound 48] | I (<19% over-expression = I)
6 | 41: peptide found in NCAPG (gene looked up) (IVTEIISEI; listed as Homo sapiens) [compound 41] | I (<19% over-expression = I)
7 | 10: peptide found in KIF15 (gene looked up) (QLIEKNWLL; listed as Homo sapiens) [compound 10] | I (<19% over-expression = I)
8 | 42: peptide found in NCAPG (gene looked up) (KQMSISTGL; listed as Homo sapiens) [compound 42] | I (<19% over-expression = I)
9 | 285: peptide found in NCAPG2 (gene looked up) (MLLDTVQKV; listed as Homo sapiens) [compound 285] | I (<19% over-expression = I)
10 | 33: peptide found in MUC16 (gene looked up) (TLDRNSLYV; listed as Homo sapiens) [compound 33] | II (20-49% = II)
11 | 93: peptide found in AURKA (gene looked up) (RLYGYFHDA; listed as Homo sapiens) [compound 93] | I (<19% over-expression = I)
12 | 239: peptide found in KIF11 (gene looked up) (VIIKGLEEITV; listed as Homo sapiens) [compound 239] | I (<19% over-expression = I)
13 | 247: peptide found in CDK1 (gene looked up) (NLLIDDKGTIKL; listed as Homo sapiens) [compound 247] | I (<19% over-expression = I)
14 | 35: peptide found in KIF11 (gene looked up) (VIIKGLEEI; listed as Homo sapiens) [compound 35] | I (<19% over-expression = I)
15 | 267: peptide found in TOP2A (gene looked up) (YLLDMPLWYL; listed as Homo sapiens) [compound 267] | I (<19% over-expression = I)
16 | 79: peptide found in CCNB2 (gene looked up) (TVLEEIGNRV; listed as Homo sapiens) [compound 79] | I (<19% over-expression = I)
17 | 121: peptide found in TRIP13 (gene looked up) (ALYVQAPTV; listed as Homo sapiens) [compound 121] | I (<19% over-expression = I)
18 | 58: peptide found in BUB1 (gene looked up) (HLLGEGAFAQV; listed as Homo sapiens) [compound 58] | I (<19% over-expression = I)
19 | 268: peptide found in TOP2A (gene looked up) (SLDKDIVAL; listed as Homo sapiens) [compound 268] | I (<19% over-expression = I)
20 | 270: peptide found in FANCI (gene looked up) (TLLTFFHEL; listed as Homo sapiens) [compound 270] | I (<19% over-expression = I)

Row | Substance | Target coverage for source gene, BPH/PCA (%)
21 | 52: peptide found in BRIP1 (gene looked up) (TIGIPFPNV; listed as Homo sapiens) [compound 52] | I (<19% over-expression = I)
22 | 112: peptide found in KIF4A (gene looked up) (ILAQDVAQL; listed as Homo sapiens) [compound 112] | I (<19% over-expression = I)
23 | 70: peptide found in KIF4A (gene looked up) (GLTEKTVLV; listed as Homo sapiens) [compound 70] | I (<19% over-expression = I)
24 | 1: peptide found in CENPE (gene looked up) (KLQEKIQEL; listed as Homo sapiens) [compound 1] | I (<19% over-expression = I)
25 | 287: peptide found in IGF2BP3 (gene looked up) (KIQEILTQV; listed as Homo sapiens) [compound 287] | I (<19% over-expression = I)
26 | 94: peptide found in ACKR2 (gene looked up) (YLDEVAFML; listed as Homo sapiens) [compound 94] | I (<19% over-expression = I)
27 | 277: peptide found in HMMR (gene looked up) (KLQEELNKV; listed as Homo sapiens) [compound 277] | I (<19% over-expression = I)
28 | 111: peptide found in HMMR (gene looked up) (AQLEGKLVSI; listed as Homo sapiens) [compound 111] | I (<19% over-expression = I)
29 | 249: peptide found in CDK1 (gene looked up) (YLYQILQGI; listed as Homo sapiens) [compound 249] | I (<19% over-expression = I)
30 | 104: peptide found in KLK3 (gene looked up) (DLPTQEPALGTT; listed as Homo sapiens) [compound 104] | IV (>70% = IV)
31 | 271: peptide found in FANCI (gene looked up) (VLIEYNFSI; listed as Homo sapiens) [compound 271] | I (<19% over-expression = I)
32 | 248: peptide found in CDK1 (gene looked up) (VLMQDSRLYL; listed as Homo sapiens) [compound 248] | I (<19% over-expression = I)
33 | 39: peptide found in PRIM2 (gene looked up) (YLEDGFAYV; listed as Homo sapiens) [compound 39] | IV (>70% = IV)
34 | 234: peptide found in NCAPG (gene looked up) (VLLNEILEQV; listed as Homo sapiens) [compound 234] | I (<19% over-expression = I)
35 | 120: peptide found in RRM2 (gene looked up) (LQLSPLKGLSL; listed as Homo sapiens) [compound 120] | I (<19% over-expression = I)
36 | 114: peptide found in NCAPH (gene looked up) (LLFPSDVQTL; listed as Homo sapiens) [compound 114] | I (<19% over-expression = I)
37 | 90: peptide found in HTR3A (gene looked up) (AILNVDEKNQV; listed as Homo sapiens) [compound 90] | I (<19% over-expression = I)
38 | 240: peptide found in KIF11 (gene looked up) (SVQENIQQK; listed as Homo sapiens) [compound 240] | I (<19% over-expression = I)
39 | 250: peptide found in CDK1 (gene looked up) (LMQDSRLYL; listed as Homo sapiens) [compound 250] | I (<19% over-expression = I)
40 | 122: peptide found in TRIP13 (gene looked up) (SIIDTELKV; listed as Homo sapiens) [compound 122] | I (<19% over-expression = I)

system: cancer tissues compared to normal tissues; test: Identification and label-free relative LC-MS quantitation of HLA-presented tumor associated peptides (presentation profiles); set-up: species or system human; conditions: FIG. 1A-D; more than 170 normal tissue samples and 376 cancer samples analysed

Row | Substance | cancer tissue samples where the peptide was found to be presented [samples] | normal tissue samples where the peptide was found to be presented [samples]
41 | SEQ ID NO.: 10: peptide found in KIF15 (gene looked up) (QLIEKNWLL; listed as Homo sapiens) | 29 | 1

same assay, conditions: FIG. 1E-J

Row | Substance | cell lines where the peptide was found to be presented [cell lines]
42 | SEQ ID NO.: 235: peptide found in CLSPN (gene looked up) (SLLNQPKAV; listed as Homo sapiens) | 13
43 | SEQ ID NO.: 243 (GLAEFQENV; listed as Homo sapiens) | 3
44 | SEQ ID NO.: 84 (FLLEREQLL; listed as Homo sapiens) | 3

same assay, conditions: FIG. 1E-J, 7A-C; more than 320 normal tissue samples and 462 cancer samples analysed

Row | Substance | cancer tissues where the peptide was found to be presented [samples] | normal tissues where the peptide was found to be presented [samples]
45 | SEQ ID NO.: 67 (FLIENLLAA; listed as Homo sapiens) | 7 | 
46 | SEQ ID NO.: 235: peptide found in CLSPN (gene looked up) (SLLNQPKAV; listed as Homo sapiens) | 30 | 
47 | SEQ ID NO.: 43: peptide found in CCR8 (gene looked up) (LLIPFTIFM; listed as Homo sapiens) | 16 | 
48 | SEQ ID NO.: 243 (GLAEFQENV; listed as Homo sapiens) | 67 | 
49 | SEQ ID NO.: 40 (KIWEELSVLEV; listed as Homo sapiens) | 8 | 
50 | SEQ ID NO.: 156: peptide found in CYSLTR1 (gene looked up) (VILTSSPFL; listed as Homo sapiens) | 11 | 3
51 | SEQ ID NO.: 84 (FLLEREQLL; listed as Homo sapiens) | 24 | 
